The list shows a part of the results. These are further read-outs of the screen, such as a control signal, another cell line or another target. No call is given for them. Compounds called inactive in the main read-out are mostly missing here. Words in brackets tell the shape of the fitted curve; partial curves, single points and poor fits give uncertain potencies.
Assay: qHTS Assay to Find Inhibitors of Chronic Active B-Cell Receptor Signaling
Details: ABC-DLBCL IkBa-CBG/CBR reporter, luminescence ratio (green luciferase fused to IkBa over red control in TMD8 lymphoma cells), 4 h
Summary of the method: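 Doxycycline induced both beetle luciferases in TMD8 lymphoma cells; IKK-driven degradation limits the IkappaBalpha-fused green signal, while red luminescence normalises for cell number and nonspecific effects. Compounds tested up to 46 uM, 4 hrs.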

[1] = measured here: CBR red luminescence, cell number
[2] = measured here: IkBa-CBG green luminescence

SMILES	AC50 [1]	AC50 [2]
COc1ccc(C(=O)Nc2c(C)cc(C)cc2C)cc1OC	35.5 µM [rising, single point]	–
Cc1cc(C)n(CCCN2CCC(C(=O)Nc3cccc(-c4cccc(F)c4)c3)CC2)n1	35.5 µM [falling, single point]	–
O=C(NC1CCN(Cc2ccccc2)CC1)c1cccc(S(=O)(=O)Nc2ccc(F)cc2)c1	23.1 µM [falling, partial curve]	–
O=C(/C=C/c1ccccc1)Nc1ccc2c(c1)OCCO2	8.91 µM [falling, partial curve, poor fit]	–
O=C(Nc1cccc(Cl)c1)Nc1ccc(Br)cc1F	16.4 µM [rising, partial curve, poor fit]	–
Cc1ccc(NC(=S)NC(=O)C2CC2)c(C)c1	6.31 µM [rising, partial curve, poor fit]	–
Cn1cnc(Sc2ncnc3nc[nH]c23)c1[N+](=O)[O-]	10 µM [rising, partial curve, poor fit]	–
CC1CCC(C(C)C)C(OC(=O)CSc2nc(N)cc(=O)[nH]2)C1 (stereo unspecified)	1 µM [rising, full curve, poor fit]	–
O=S(=O)(C/C(=C/CO)S(=O)(=O)c1ccccc1)c1ccccc1	1 µM [falling, full curve]	–
COC(=O)C1CCN(C(=O)COC(=O)CC(NC(C)=O)c2ccccc2)CC1 (stereo unspecified)	32.6 µM [falling, single point]	–
COc1cccc(NC(=O)Nc2nnc(-c3ccccc3SCc3ccccc3)s2)c1	6.51 µM [rising, single point]	–
Cc1ccc(SCC(=O)OCC(=O)N(C)CC(=O)Nc2ccc(F)cc2)cc1	1.84 µM [falling, partial curve, poor fit]	–
c1cc2[nH]snc2c2nc(C3CC3)nc12	35.5 µM [falling, single point]	–
O=C1NC(=S)CN1c1ccccc1	11.2 µM [falling, partial curve]	–
C=CCSC1=C(C#N)C(c2ccccc2Cl)C(C(=O)c2cccs2)C(O)(C(F)(F)F)N1 (stereo unspecified)	20.6 µM [falling, single point]	–
CC1Cn2c(nc(=O)c3c2NCN(CCc2ccccc2)C3)S1 (stereo unspecified)	25.1 µM [rising, partial curve, poor fit]	–
CCCOC(=O)c1ccc(NC(=O)C2C3CCC(C3)C2C(=O)O)cc1 (stereo unspecified)	0.731 µM [rising, partial curve, poor fit]	–
CN(C)S(=O)(=O)N1CCC(Oc2cccc(C(=O)NC3CCCCCC3)c2)CC1	11.2 µM [falling, partial curve]	–
CCOC(=O)N1CCN(C(=O)c2ccc(CN(c3ccc(C)c(C)c3)S(C)(=O)=O)cc2)CC1	22.4 µM [falling, single point]	–
O=C(COC(=O)CCc1nc2ccccc2s1)NCc1ccco1	3.98 µM [rising, single point]	–
CCOCCn1c(C(C)O)nc2ccccc21 (stereo unspecified)	0.251 µM [rising, full curve, poor fit]	–
Cc1ccc(/C=N/NC(=O)c2ccc(NC(=O)c3ccccc3Cl)cc2)o1	35.5 µM [falling, partial curve, poor fit]	–

Shown as comma-separated lines: 2 of the compounds above.
SMILES,AC50 [1],AC50 [2]
Cc1ccc(NC(=S)NC(=O)C2CC2)c(C)c1,"6.31 µM [rising, partial curve, poor fit]",–
Cn1cnc(Sc2ncnc3nc[nH]c23)c1[N+](=O)[O-],"10 µM [rising, partial curve, poor fit]",–

The listing continues.

SMILES	AC50 [1]	AC50 [2]
CC(Sc1nnc2c(n1)C1CCC2(C)C1(C)C)C(=O)Nc1ccccc1 (stereo unspecified)	3.66 µM [rising, partial curve, poor fit]	–
CC(=O)Nc1ccc(Oc2sc(C(=O)c3ccccc3)c(N)c2C#N)cc1	8.91 µM [falling, partial curve]	–
COc1ccc(/C=C(/C#N)C(=O)Nc2ccc(O)cc2)cc1C(=O)O	11.2 µM [falling, single point]	–
O=C(COC(=O)c1ccc(F)cc1)NCC1COc2ccccc2O1 (stereo unspecified)	20.6 µM [falling, single point]	–
CCOC(=O)c1c(C)[nH]c(C(=O)C(C)OC(=O)c2cccc(OCc3c(C)noc3C)c2)c1C (stereo unspecified)	3.55 µM [falling, full curve]	–
Cc1ccc2[nH]c(C(=O)Nc3ccc(F)cc3)cc2c1	15.8 µM [falling, partial curve]	–
CCCCOc1ccc(NC(=O)Nc2nnc(C)s2)cc1	14.1 µM [rising, partial curve]	–
O=C(CCCc1ccccc1)NCc1ccccc1Cl	7.94 µM [falling, partial curve]	–
FC(F)(F)c1nnc2ccc(NCn3nnc4ccccc43)nn12	14.6 µM [falling, partial curve]	–
O=C(c1cc2cc(F)ccc2[nH]1)N1CCC(Cc2ccccc2)CC1	35.5 µM [rising, single point]	–
Fc1cccc(Cl)c1/C=C/c1cnc2ccccc2n1	8.91 µM [rising, partial curve, poor fit]	–
O=C(Nc1ccccc1O)c1ccccc1O	11.2 µM [falling, single point]	–
Cc1c(C(=O)NC(C)c2ccccn2)oc2c(Cl)cccc12 (stereo unspecified)	29.1 µM [rising, single point]	–
Cc1occc1C(=O)N/N=C/C=C/c1ccc(N(C)C)cc1	35.5 µM [falling, partial curve, poor fit]	–
O=C(NC1CCCCC1)NC1CC2CCC(C1)N2C(=O)NCc1ccccc1 (stereo unspecified)	18.4 µM [rising, single point]	–
COc1ccccc1N1CCN(C(=O)CCNC(=O)Cn2ccc3ccccc3c2=O)CC1	2.24 µM [rising, partial curve, poor fit]	–
Cc1c(C(=O)NCc2ccccc2)c(-c2ccccc2)nn1-c1ccccc1	23.1 µM [falling, single point]	–
COc1cccc(/C=N/NC(=O)C(=O)N2CCCC2)c1O	25.1 µM [falling, single point]	–
Cc1cc[n+](-c2[nH]c(=O)sc2/C=N/NC(=O)c2ccccc2[O-])cc1C	18.4 µM [falling, single point]	–
C/C(CC(=O)N1CCCC1)=N\NC(=O)c1cc2ccccc2cc1O	10 µM [falling, partial curve]	–
COc1cccc(C(=O)Nc2ccc(NC(C)=O)cc2)c1	5.8 µM [falling, partial curve, poor fit]	–
O=C(Nc1cc(C(F)(F)F)ccc1N1CCCC1)C1CCCO1 (stereo unspecified)	18.4 µM [rising, partial curve, poor fit]	–

Single records (already shown). Values in the order: AC50 [1] | AC50 [2]
`O=C(c1cc2cc(F)ccc2[nH]1)N1CCC(Cc2ccccc2)CC1` reads 35.5 µM [rising, single point] | –
`Cc1c(C(=O)NCc2ccccc2)c(-c2ccccc2)nn1-c1ccccc1` reads 23.1 µM [falling, single point] | –
`O=C(Nc1cc(C(F)(F)F)ccc1N1CCCC1)C1CCCO1` (stereo unspecified) reads 18.4 µM [rising, partial curve, poor fit] | –
`COc1ccc(/C=C(/C#N)C(=O)Nc2ccc(O)cc2)cc1C(=O)O` reads 11.2 µM [falling, single point] | –

Next part

SMILES	AC50 [1]	AC50 [2]
Oc1ccc(-c2nc3ccccn3c2NCc2ccc3c(c2)OCO3)cc1	2.82 µM [falling, full curve, poor fit]	–
O=C(OCc1cc(=O)oc2cc(O)ccc12)c1cc(S(=O)(=O)N2CCOCC2)ccc1F	29.1 µM [falling, single point]	–
Cc1ccc(OC(C)C(=O)Nc2cc(C)on2)cc1 (stereo unspecified)	35.5 µM [rising, single point]	–
COc1ccc(N(CC(=O)N2CCCCCC2)S(=O)(=O)c2c(C)[nH]c(=O)[nH]c2=O)cc1	20.6 µM [falling, single point]	–
O=C(c1cccs1)N(Cc1cccnc1)c1nc2c(Cl)cccc2s1	25.1 µM [falling, partial curve, poor fit]	–
COc1ccccc1/C=C/C(=O)OCC(=O)NC1CCCCCC1	4.61 µM [falling, full curve]	–
NC(=O)C1CCN(C(=O)COc2ccc(Nc3ccccc3)cc2)CC1	12.6 µM [rising, single point]	–
CN(C)C(=O)[C@@H]1C[C@H]1[C@@H](NC(=O)OCc1ccccc1)c1ccccc1	–	18.4 µM [falling, partial curve, poor fit]
CCOc1ccccc1N(C(=O)c1ccco1)C(C(=O)NC1CCCC1)c1cccnc1 (stereo unspecified)	2.31 µM [rising, partial curve, poor fit]	–
CC1C=CCC2C(=O)N(c3cccc(C(=O)Nc4ccc(Br)cc4)c3)C(=O)C12 (stereo unspecified)	17.8 µM [falling, partial curve]	–
Cc1ccc(NNC2CC(=O)N(c3cccc(Cl)c3)C2=O)cc1 (stereo unspecified)	25.1 µM [falling, single point]	–
CC(=O)Nc1ccc2oc(-c3ccccc3)nc2c1	25.1 µM [falling, single point]	–
CN(CC(=O)NCc1ccco1)S(=O)(=O)c1ccc2c(c1)n(C)c(=O)c(=O)n2C	4.61 µM [falling, full curve, poor fit]	–
CC1CCN(CC(=O)Nc2ccc(S(=O)(=O)NC3CC3)cc2)CC1	6.31 µM [falling, single point]	–
Cc1cc(N2C(=O)C=CC2=O)c([N+](=O)[O-])cc1C	10.3 µM [falling, partial curve]	18.4 µM [rising, partial curve, poor fit]
O=C(Nc1cc(Cl)c(O)c(Cl)c1)C1CCCO1 (stereo unspecified)	6.51 µM [falling, partial curve, poor fit]	–
CC(C)C(NC(=O)c1ccco1)C(=O)NCC(c1ccco1)N1CCCCC1 (stereo unspecified)	0.517 µM [rising, partial curve, poor fit]	–
CCCC1CCc2c(c3ccccc3[nH]c2=O)O1 (stereo unspecified)	4.61 µM [rising, single point]	–
C/C(=N\Nc1ccc(C(=O)O)cc1)c1ccc(-n2ccnc2)cc1	0.501 µM [falling, full curve]	–
CCOc1cccc(/C=C/c2ccc3ccccc3n2)c1OC(C)=O	22.4 µM [falling, single point]	–
CCOC(=O)c1ccc(NC(=S)NCCC2=CCCCC2)cc1	5.17 µM [falling, partial curve]	–
